Assay in all cases: proximity labelling; TurboID on the C-terminus of IRE1α or IRE1β in HMC-1.2 IRE1α−/− cells; DMSO or tunicamycin 2 h, then 500 µM biotin 1 h; RIPA lysis, streptavidin magnetic beads, LC-MS/MS, LFQ against cytosolic V5-TurboID; DMSO and TM groups merged
In experiment [1] the target is IRE1β-TurboID (human IRE1β with TurboID fused to its C-terminus) (human) (UniProt Q76MJ5).
The target in experiment [2] is IRE1α-TurboID (human IRE1α with TurboID fused to its C-terminus) (human) (UniProt O75460).
The target in experiment [3] is IRE1β-TurboID (human IRE1β with TurboID fused to its C-terminus) (human) (UniProt Q76MJ5). The source holds these as a separate data set.
The target in experiment [4] is IRE1α-TurboID (human IRE1α with TurboID fused to its C-terminus) (human) (UniProt O75460). The source holds these as a separate data set.

The chains behind the UniProt entries cited, without tags or fusion partners. Residues count along the entry.
UniProt Q76MJ5, residues 35-926: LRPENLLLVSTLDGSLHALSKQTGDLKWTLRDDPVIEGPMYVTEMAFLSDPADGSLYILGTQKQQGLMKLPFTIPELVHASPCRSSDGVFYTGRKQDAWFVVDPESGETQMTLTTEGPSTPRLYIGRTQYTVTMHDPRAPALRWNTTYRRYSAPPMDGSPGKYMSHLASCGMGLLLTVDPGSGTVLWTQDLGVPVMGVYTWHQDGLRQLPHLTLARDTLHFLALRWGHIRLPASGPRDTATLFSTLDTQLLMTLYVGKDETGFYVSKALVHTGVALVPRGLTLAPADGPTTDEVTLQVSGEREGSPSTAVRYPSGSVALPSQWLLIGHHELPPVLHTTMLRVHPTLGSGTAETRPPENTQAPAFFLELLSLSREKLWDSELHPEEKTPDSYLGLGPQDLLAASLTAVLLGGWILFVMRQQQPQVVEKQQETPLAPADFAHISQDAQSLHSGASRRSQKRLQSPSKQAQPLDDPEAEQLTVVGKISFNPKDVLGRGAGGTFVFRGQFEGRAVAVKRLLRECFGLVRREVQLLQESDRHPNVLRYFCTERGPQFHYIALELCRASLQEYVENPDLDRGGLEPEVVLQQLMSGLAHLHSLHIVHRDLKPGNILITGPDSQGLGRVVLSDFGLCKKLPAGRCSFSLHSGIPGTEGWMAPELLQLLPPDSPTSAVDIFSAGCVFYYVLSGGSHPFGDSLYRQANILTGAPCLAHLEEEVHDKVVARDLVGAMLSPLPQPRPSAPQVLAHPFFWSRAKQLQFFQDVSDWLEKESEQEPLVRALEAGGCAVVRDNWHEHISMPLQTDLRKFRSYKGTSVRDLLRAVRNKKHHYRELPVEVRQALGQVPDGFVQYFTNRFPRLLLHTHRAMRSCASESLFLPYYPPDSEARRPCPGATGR
UniProt O75460, residues 19-977: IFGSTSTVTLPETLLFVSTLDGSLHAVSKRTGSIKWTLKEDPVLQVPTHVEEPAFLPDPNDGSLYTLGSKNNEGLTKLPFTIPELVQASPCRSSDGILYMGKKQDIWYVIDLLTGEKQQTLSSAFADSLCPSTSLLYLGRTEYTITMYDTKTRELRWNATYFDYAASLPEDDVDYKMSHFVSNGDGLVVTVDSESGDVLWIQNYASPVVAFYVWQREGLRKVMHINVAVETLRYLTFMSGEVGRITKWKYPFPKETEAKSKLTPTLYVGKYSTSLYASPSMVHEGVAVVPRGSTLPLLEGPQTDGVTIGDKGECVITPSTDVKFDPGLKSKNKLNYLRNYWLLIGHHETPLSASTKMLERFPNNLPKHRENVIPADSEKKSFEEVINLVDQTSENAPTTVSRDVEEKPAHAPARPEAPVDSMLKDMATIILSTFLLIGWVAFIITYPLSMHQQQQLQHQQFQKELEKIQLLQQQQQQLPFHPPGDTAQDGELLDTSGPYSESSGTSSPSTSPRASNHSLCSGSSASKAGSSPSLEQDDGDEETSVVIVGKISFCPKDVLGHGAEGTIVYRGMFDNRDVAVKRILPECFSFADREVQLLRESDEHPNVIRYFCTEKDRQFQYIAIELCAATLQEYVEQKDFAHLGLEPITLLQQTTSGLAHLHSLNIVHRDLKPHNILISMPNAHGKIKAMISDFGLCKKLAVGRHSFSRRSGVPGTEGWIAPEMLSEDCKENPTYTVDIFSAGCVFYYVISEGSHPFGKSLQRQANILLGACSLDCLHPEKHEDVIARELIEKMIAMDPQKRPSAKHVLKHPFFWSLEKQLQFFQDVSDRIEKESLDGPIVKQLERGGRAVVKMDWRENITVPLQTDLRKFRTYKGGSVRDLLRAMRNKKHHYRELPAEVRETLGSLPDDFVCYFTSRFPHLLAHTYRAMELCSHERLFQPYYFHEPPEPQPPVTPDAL
UniProt Q7KZF4: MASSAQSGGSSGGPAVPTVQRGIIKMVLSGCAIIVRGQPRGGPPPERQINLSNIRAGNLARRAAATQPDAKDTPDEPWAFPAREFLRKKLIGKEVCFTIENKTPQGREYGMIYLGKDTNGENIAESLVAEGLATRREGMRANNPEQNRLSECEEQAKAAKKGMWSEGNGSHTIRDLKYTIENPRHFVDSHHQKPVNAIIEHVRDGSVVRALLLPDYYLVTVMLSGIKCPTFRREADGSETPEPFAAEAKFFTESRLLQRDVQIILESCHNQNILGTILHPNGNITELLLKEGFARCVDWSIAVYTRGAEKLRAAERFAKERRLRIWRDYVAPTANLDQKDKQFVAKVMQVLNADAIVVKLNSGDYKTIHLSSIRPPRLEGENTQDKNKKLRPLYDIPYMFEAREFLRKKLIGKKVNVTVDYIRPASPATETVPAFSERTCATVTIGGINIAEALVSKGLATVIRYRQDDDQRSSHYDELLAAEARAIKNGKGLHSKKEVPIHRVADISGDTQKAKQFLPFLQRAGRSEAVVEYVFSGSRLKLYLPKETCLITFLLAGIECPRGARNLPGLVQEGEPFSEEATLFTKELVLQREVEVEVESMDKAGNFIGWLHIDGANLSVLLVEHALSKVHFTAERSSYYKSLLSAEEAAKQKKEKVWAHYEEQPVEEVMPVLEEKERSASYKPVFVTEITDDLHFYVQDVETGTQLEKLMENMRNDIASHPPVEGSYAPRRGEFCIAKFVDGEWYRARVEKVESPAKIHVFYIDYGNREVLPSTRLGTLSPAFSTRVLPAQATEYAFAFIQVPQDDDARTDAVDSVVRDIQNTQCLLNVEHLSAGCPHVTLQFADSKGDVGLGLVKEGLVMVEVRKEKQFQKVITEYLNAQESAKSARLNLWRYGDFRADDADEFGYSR
UniProt Q9UGP8: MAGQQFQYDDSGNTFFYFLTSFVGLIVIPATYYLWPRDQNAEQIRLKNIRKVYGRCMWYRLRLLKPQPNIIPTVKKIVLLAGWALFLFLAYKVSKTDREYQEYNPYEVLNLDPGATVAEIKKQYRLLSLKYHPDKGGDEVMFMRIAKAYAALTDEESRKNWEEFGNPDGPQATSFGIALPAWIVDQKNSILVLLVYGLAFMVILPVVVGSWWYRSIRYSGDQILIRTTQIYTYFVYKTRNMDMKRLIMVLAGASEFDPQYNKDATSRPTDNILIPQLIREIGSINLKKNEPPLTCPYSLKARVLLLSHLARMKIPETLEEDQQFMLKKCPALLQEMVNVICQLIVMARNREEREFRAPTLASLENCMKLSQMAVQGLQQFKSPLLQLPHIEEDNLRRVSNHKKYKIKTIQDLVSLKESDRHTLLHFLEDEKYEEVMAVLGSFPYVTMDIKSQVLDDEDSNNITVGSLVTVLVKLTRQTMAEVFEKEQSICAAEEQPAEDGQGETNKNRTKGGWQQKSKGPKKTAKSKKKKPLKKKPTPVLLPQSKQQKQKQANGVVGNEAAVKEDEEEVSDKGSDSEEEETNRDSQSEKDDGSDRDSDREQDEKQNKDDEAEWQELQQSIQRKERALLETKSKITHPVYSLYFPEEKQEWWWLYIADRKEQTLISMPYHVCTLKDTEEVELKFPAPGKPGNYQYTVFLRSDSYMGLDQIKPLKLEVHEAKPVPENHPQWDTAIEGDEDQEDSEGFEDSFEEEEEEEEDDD

Like-named read-outs stand apart in the source and are kept apart here. Results are given in words; binding and its absence hold for the method and conditions named. In cells and extracts the contact can be indirect. Here binding means that the protein was enriched with, or labelled near, the bait; the list need not be complete. For some assays here: No binding means not detected with the bait.

Consider “valosin-containing protein (VCP), endogenous (from UniProt P55072 1-806)”, for which the binding entry is given as “no binding” in experiment [1] and “binds” in experiment [2].
For “staphylococcal nuclease domain-containing 1 (SND1), endogenous (from UniProt Q7KZF4 1-910)” the same measures were “no binding” and “binds”.
“translocon complex member Sec63, endogenous (from UniProt Q9UGP8 1-760)”: the binding result in experiment [2] is listed as “binds”.

B1: metadherin (MTDH), endogenous (protein, UniProt Q86UE4 1-582)
chain: MAARSWQDELAQQAEEGSARLREMLSVGLGFLRTELGLDLGLEPKRYPGWVILVGTGALGLLLLFLLGYGWAAACAGARKKRRSPPRKREEAAAVPAAAPDDLALLKNLRSEEQKKKNRKKLSEKPKPNGRTVEVAEGEAVRTPQSVTAKQPPEIDKKNEKSKKNKKKSKSDAKAVQNSSRHDGKEVDEGAWETKISHREKRQQRKRDKVLTDSGSLDSTIPGIENTITVTTEQLTTASFPVGSKKNKGDSHLNVQVSNFKSGKGDSTLQVSSGLNENLTVNGGGWNEKSVKLSSQISAGEEKWNSVSPASAGKRKTEPSAWSQDTGDANTNGKDWGRSWSDRSIFSGIGSTAEPVSQSTTSDYQWDVSRNQPYIDDEWSGLNGLSSADPNSDWNAPAEEWGNWVDEERASLLKSQEPIPDDQKVSDDDKEKGEGALPTGKSKKKKKKKKKQGEDNSTAQDTEELEKEIREDLPVNTSKTRPKQEKAFSLKTISTSDPAEVLVKNSQPIKTLPPATSTEPSVILSKSDSDKSSSQVPPILQETDKSKSNTKQNSVPPSQTKSETSWESPKQIKKKKKARRET
B1: the figures for the binding entry in experiment [3] and in experiment [4] were “no binding” and “binds”, respectively.

B2: UBXN4, endogenous (protein, UniProt Q92575 1-508)
chain: MLWFQGAIPAAIATAKRSGAVFVVFVAGDDEQSTQMAASWEDDKVTEASSNSFVAIKIDTKSEACLQFSQIYPVVCVPSSFFIGDSGIPLEVIAGSVSADELVTRIHKVRQMHLLKSETSVANGSQSESSVSTPSASFEPNNTCENSQSRNAELCEIPPTSDTKSDTATGGESAGHATSSQEPSGCSDQRPAEDLNIRVERLTKKLEERREEKRKEEEQREIKKEIERRKTGKEMLDYKRKQEEELTKRMLEERNREKAEDRAARERIKQQIALDRAERAARFAKTKEEVEAAKAAALLAKQAEMEVKRESYARERSTVARIQFRLPDGSSFTNQFPSDAPLEEARQFAAQTVGNTYGNFSLATMFPRREFTKEDYKKKLLDLELAPSASVVLLPAGRPTASIVHSSSGDIWTLLGTVLYPFLAIWRLISNFLFSNPPPTQTSVRVTSSEPPNPASSSKSEKREPVRKRVLEKRGDDFKKEGKIYRLRTQDDGEDENNTWNGNSTQQM
On to B2, for which the binding entry in experiment [4] is “binds”.

Values taken from article PMC11082977.
